Experimental data reported in patent US20130095503A1, “SERUM SPLA2-IIA AS DIAGNOSIS MARKER FOR PROSTATE AND LUNG CANCER” (UNIVERSITY OF CINCINNATI, priority 2010, published 2013).
At least one compound was matched to its structure with a doubt left.

Key:
Assay type in all cases: cell-based, human
[1] = tested on: sPLA2-IIA secretion by LNCaP-AI cells; test: ELISA of sPLA2-IIA secreted into culture medium of LNCaP-AI cells; details: inhibitor ~20 μM (CI-1033 ~8 μM), about 24 hours, FIG. 7
Experimental: Finally, LNCaP-AI cells were starved in 1% stripped medium for about 24 hours. The cells were then treated with Erlotinib (˜20 μM), Gefitinib (˜20 μM), Lapatinib (˜20 μM), CI-1033 (˜8 μM), LY294002 (˜20 μM), and Bortezomib (˜20 μM) for about 24 hours. Cell culture medium was collected from each sample and subjected to ELISA for sPLA2-IIA. The condition medium samples were diluted 10 times for ELISA. The average of duplicate samples was converted to nanogram per milliliter against standard curve. The data represent one of five repeated experiments.

sPLA2-IIA gene promoter = test: sPLA2-IIA(-800)-Luc reporter (luciferase) assay in LNCaP-AI cells; details: EGF ~100 ng/mL with inhibitor ~20 μM (CI-1033 ~8 μM), about 24 hours, FIG. 1
Experimental: The role of sPLA2-IIA gene regulation in prostate cancer cells via the HER/HER2-PI3K-Akt-NF-κB pathway was investigated. A reporter assay was performed by transiently transfecting sPLA2-IIA(-800)-Luc (˜0.25 μg/well) reporter in LNCaP-AI cells (˜10^5 cells/well in 12-well plate). The cells were then treated with epidermal growth factor (hereinafter “EGF”) (˜100 ng/mL) without or with EGFR inhibitors Erlotinib (˜20 μM) and Gefitinib (˜20 μM), EGFR/HER2 dual inhibitors Lapatinib (˜20 μM) and CI-1033 (˜8 μM), phosphoinositide 3-kinase (hereinafter “PI3K”) inhibitor LY294002 (˜20 μM), and NF-κB inhibitor Bortezomib (˜20 μM) for about 24 hours. A luciferase assay was performed according to a standard protocol with Renilla luciferase as an internal control. Another reporter assay was performed wherein LNCaP-AI cells were starved in 1% stripped medium for about 24 hours. The cells were the treated with Erlotinib (˜20 μM), Gefitinib (˜20 μM), Lapatinib (˜20 μM), CI-1033 (˜8 μM), LY294002 (˜20 μM), Bortezomib (˜20 μM), and/or Heregulin-α (˜50 ng/mL) without or with EGF (˜100 ng/mL) for about 24 hours.

[2] = tested on: sPLA2-IIA protein expression in LNCaP-AI cells; test: Western blot of sPLA2-IIA protein expression in LNCaP-AI cells; details: basal states and EGF-induced expression, inhibitor ~20 μM (CI-1033 ~8 μM), about 24 hours, FIGS. 2-4
Experimental: The role of sPLA2-IIA gene regulation in prostate cancer cells via the HER/HER2-PI3K-Akt-NF-κB pathway was investigated. A reporter assay was performed by transiently transfecting sPLA2-IIA(-800)-Luc (˜0.25 μg/well) reporter in LNCaP-AI cells (˜10^5 cells/well in 12-well plate). The cells were then treated with epidermal growth factor (hereinafter “EGF”) (˜100 ng/mL) without or with EGFR inhibitors Erlotinib (˜20 μM) and Gefitinib (˜20 μM), EGFR/HER2 dual inhibitors Lapatinib (˜20 μM) and CI-1033 (˜8 μM), phosphoinositide 3-kinase (hereinafter “PI3K”) inhibitor LY294002 (˜20 μM), and NF-κB inhibitor Bortezomib (˜20 μM) for about 24 hours. A luciferase assay was performed according to a standard protocol with Renilla luciferase as an internal control. […]
Cell extracts were then prepared and subjected to western blot analysis for sPLA2-IIA, P-Akt, Akt, and β-actin. Briefly, aliquots of samples with the same amount of protein, determined using the Bradford assay (BioRad, Hercules, Calif.), were mixed with loading buffer (final concentrations of 62.5 mM Tris-HCl, pH 6.8, 2.3% sodium dodecyl sulfate, 100 mM dithiothreitol, and 0.005% bromophenol blue), boiled, fractionated in a sodium dodecyl sulfate-polyacrylamide gel electrophoresis, and transferred onto a 0.45-μm nitrocellulose membrane (BioRad). […]

In the case of O=c1cc(N2CCOCC2)oc2c(-c3ccccc3)cccc12 [LY294002], the “effect on sPLA2-IIA secretion (ELISA of culture medium)” value [1] is reported as “significantly inhibited”, the “effect on EGF-stimulated promoter activity of sPLA2-IIA gene” value (sPLA2-IIA gene promoter) is reported as “blocked” and the “effect on sPLA2-IIA protein expression” value [2] is reported as “dramatically downregulated”.
